Source: PubChem BioAssay AID1259405 (NCATS, 2018)
Purpose: 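Silenced genes that increase secreted GFP made by CHO cells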 (primary screen). Cells: Chinese hamster CHO-K1 ovary cells with stable secreted eGFP expression. Reagents: single siRNA against mouse genes, 0.8 pmol siRNA per well (2 µl of 400 nM stock). Duration: 3 days. Measurement: 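Percent of the per-plate non-targeting control median for intracellular GFP per well by laser scanning cytometry and for cell viability by ATP luminescence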. Direction: GFP, % of control: higher = more GFP per well, higher productivity; viability (ATP), % of control: higher = more viable cells (more ATP). Call rule: 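a knock-down is called active if GFP reaches 120% or more of non-targeting control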.
In all, the deposit lists about 50,000 reagents; shown is a random part of them. Of all reagents, about 4,000 (8%) got an active call. 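Mouse siRNA library applied to hamster cells; one well for each siRNA.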 Reagents against one gene are numbered here.

Target gene | reagent no. | GFP, % of control | viability (ATP), % of control | call
Lgmn | 1 | 71 | 88 | inactive
Lgmn | 2 | 54.6 | 53.4 | inactive
Lgmn | 3 | 81.6 | 86.5 | inactive
Psen2 | 1 | 62.4 | 67.8 | inactive
Psen2 | 2 | 76.5 | 58.7 | inactive
Psen2 | 3 | 108 | 95.8 | inactive
Sfrp2 | 1 | 102 | 79.8 | inactive
Sfrp2 | 2 | 56.4 | 59.7 | inactive
Sfrp2 | 3 | 77.2 | 68.4 | inactive
Rnf6 | 1 | 98.7 | 124 | inactive
Rnf6 | 2 | 54.4 | 74.9 | inactive
Rnf6 | 3 | 76.5 | 117 | inactive
Dnajb3 | 1 | 94.6 | 75.3 | inactive
Dnajb3 | 2 | 121 | 90.4 | active
Dnajb3 | 3 | 41.8 | 48.3 | inactive
Nkiras2 | 1 | 103 | 93.7 | inactive
Nkiras2 | 2 | 84.6 | 95.7 | inactive
Nkiras2 | 3 | 71.9 | 72.7 | inactive
Edf1 | 1 | 84.8 | 85.2 | inactive
Edf1 | 2 | 164 | 144 | active
Edf1 | 3 | 111 | 97.9 | inactive
Edf1 | 4 | 104 | 89.3 | inactive
Edf1 | 5 | 91.4 | 105 | inactive
Mgat5 | 1 | 61.2 | 57.4 | inactive
Mgat5 | 2 | 76.9 | 75.6 | inactive
Mgat5 | 3 | 72.3 | 84.7 | inactive
Rsbn1 | 1 | 70.9 | 77.8 | inactive
Rsbn1 | 2 | 52.9 | 68.3 | inactive
Rsbn1 | 3 | 69.4 | 80.3 | inactive
Sstr5 | 1 | 111 | 86.1 | inactive
Sstr5 | 2 | 62.9 | 64.8 | inactive
Sstr5 | 3 | 59.9 | 45.3 | inactive
Ccng1 | 1 | 62.1 | 76 | inactive
Ccng1 | 2 | 75.2 | 75.8 | inactive
Tkt | 1 | 102 | 133 | inactive
Tkt | 2 | 46.6 | 112 | inactive
Tkt | 3 | 71.7 | 125 | inactive
Mrpl24 | 1 | 66.2 | 47 | inactive
Mrpl24 | 2 | 92.8 | 45.2 | inactive
Mrpl24 | 3 | 66.5 | 82.1 | inactive
Impa1 | 1 | 81.1 | 51.3 | inactive
Impa1 | 2 | 97.9 | 91.7 | inactive
Impa1 | 3 | 83.8 | 78 | inactive
Prl6a1 | 1 | 100 | 84.6 | inactive
Prl6a1 | 2 | 83.7 | 71.8 | inactive
Prl6a1 | 3 | 85.4 | 54.9 | inactive
Cnga3 | 1 | 100 | 93.1 | inactive
Cnga3 | 2 | 101 | 88 | inactive
Cnga3 | 3 | 39.6 | 73.4 | inactive
6030498E09Rik | 1 | 90.1 | 54.3 | inactive
6030498E09Rik | 2 | 87.5 | 91.5 | inactive
6030498E09Rik | 3 | 121 | 123 | active
Trappc6a | 1 | 109 | 86.1 | inactive
Trappc6a | 2 | 26.1 | 39.9 | inactive
Trappc6a | 3 | 54 | 69.9 | inactive
Actl11 | 1 | 74.8 | 86 | inactive
Actl11 | 2 | 67.5 | 75 | inactive
Actl11 | 3 | 32 | 76.1 | inactive
Cutal | 1 | 54.1 | 46 | inactive
Cutal | 2 | 119 | 75.6 | inactive
Cutal | 3 | 81.8 | 69.3 | inactive
Nts | 1 | 97.5 | 75.6 | inactive
Nts | 2 | 130 | 92.7 | active
Nts | 3 | 70.9 | 112 | inactive
Pmm2 | 1 | 149 | 132 | active
Pmm2 | 2 | 80.8 | 73.2 | inactive
Pmm2 | 3 | 76.7 | 89.1 | inactive
Nfe2l2 | 1 | 74 | 64.4 | inactive
Nfe2l2 | 2 | 52.8 | 65.2 | inactive
Nfe2l2 | 3 | 78.6 | 107 | inactive
St8sia3 | 1 | 125 | 98.9 | active
St8sia3 | 2 | 122 | 135 | active
St8sia3 | 3 | 114 | 79.5 | inactive
Marchf1 | 1 | 47.9 | 49.1 | inactive
Marchf1 | 2 | 105 | 80.1 | inactive
Marchf1 | 3 | 70.7 | 111 | inactive
Cdc23 | 1 | 56.4 | 74.3 | inactive
Cdc23 | 2 | 57.6 | 85.2 | inactive
Cdc23 | 3 | 61.4 | 114 | inactive
Cldn3 | 1 | 81.5 | 42.9 | inactive
Cldn3 | 2 | 98.1 | 93.8 | inactive
Cldn3 | 3 | 125 | 94.8 | active
Ferd3l | 1 | 78.4 | 90.8 | inactive
Ferd3l | 2 | 55.9 | 62.4 | inactive
Ferd3l | 3 | 106 | 95.1 | inactive
Amotl2 | 1 | 88.4 | 62.6 | inactive
Amotl2 | 2 | 54.4 | 45.7 | inactive
Amotl2 | 3 | 99.3 | 67.7 | inactive
Bcorl1 | 1 | 28.9 | 29 | inactive
Bcorl1 | 2 | 39.1 | 82 | inactive
Bcorl1 | 3 | 119 | 152 | inactive
Cltb | 1 | 101 | 129 | inactive
Cltb | 2 | 55.2 | 66.3 | inactive
Rhpn2 | 1 | 107 | 88.6 | inactive
Rhpn2 | 2 | 48.4 | 58.5 | inactive
Rhpn2 | 3 | 73.1 | 88.9 | inactive
Il18r1 | 1 | 126 | 107 | active
Il18r1 | 2 | 64.3 | 81.8 | inactive
Il18r1 | 3 | 66.5 | 80.6 | inactive
Mapk1 | 1 | 58.3 | 70.7 | inactive
Upf3b | 1 | 61.8 | 60.9 | inactive
Upf3b | 2 | 61.7 | 67.3 | inactive
Upf3b | 3 | 79.8 | 101 | inactive
Mef2a | 1 | 116 | 68.3 | inactive
Mef2a | 2 | 74.3 | 70.9 | inactive
Mef2a | 3 | 67.3 | 70.7 | inactive
Zc3h15 | 1 | 98.3 | 73.8 | inactive
Zc3h15 | 2 | 103 | 89.3 | inactive

Called active (from the list above):
Target gene | reagent no. | GFP, % of control | viability (ATP), % of control | call
Dnajb3 | 2 | 121 | 90.4 | active
Edf1 | 2 | 164 | 144 | active
6030498E09Rik | 3 | 121 | 123 | active
Nts | 2 | 130 | 92.7 | active
Pmm2 | 1 | 149 | 132 | active
St8sia3 | 1 | 125 | 98.9 | active
St8sia3 | 2 | 122 | 135 | active
Cldn3 | 3 | 125 | 94.8 | active
Il18r1 | 1 | 126 | 107 | active
